Assay results taken from the supplement of paper PMC4604168 (melanoma cell lines).
The other results are listed elsewhere or left out. Repeats are few or missing, and single values can be far off.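 Cells were imaged in 1,536-well plates, and nuclei stained with an antibody against cleaved PARP were counted against all DNA-stained nuclei to give the apoptosis fraction. Screening doses were chosen to leave most cells alive, and resting and induced cleaved-PARP levels differ strongly between cell lines.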

system: MZ2-MEL; test: cleaved PARP positive nuclei fraction relative to DMSO control; melanoma cells; higher = more apoptosis; details: library dose: low library concentration; 72 h

Structure (SMILES)	cleaved PARP positive nuclei fraction [%]
Cn1cncc1[C@@](N)(c1ccc(Cl)cc1)c1ccc2c(c1)c(-c1cccc(Cl)c1)cc(=O)n2C [tipifarnib] + CCCCCCCCCCCC1=C(O)C(=O)C=C(O)C1=O [Embelin] (first compound 0.01 µM, partner dose 1.2 µM)	50.2
O=C(CCCCCCC(=O)Nc1ccccc1)NO [vorinostat] + c1cc(-c2cnn3cc(-c4ccc(OCCN5CCCCC5)cc4)cnc23)ccn1 [Dorsomorphin] (first compound 0.08 µM, partner dose 0.4 µM)	120
NC(=O)Nc1cc(-c2cccc(F)c2)sc1C(=O)N[C@H]1CCCNC1 + COC(=O)c1sccc1S(=O)(=O)Nc1ccc(Nc2ccccc2)cc1OC [GSK0660] (first compound 0.02 µM, partner dose 1 µM)	83.8
Cc1nc(Nc2ncc(C(=O)Nc3c(C)cccc3Cl)s2)cc(N2CCN(CCO)CC2)n1 [dasatanib] + Oc1nc(-c2ccc(C(F)(F)F)cc2)nc2c1CSCC2 [XAV939] (first compound 0.004 µM, partner dose 2 µM)	175
Cn1cncc1[C@@](N)(c1ccc(Cl)cc1)c1ccc2c(c1)c(-c1cccc(Cl)c1)cc(=O)n2C [tipifarnib] + Oc1cc(-c2nc(-c3ccccc3)[nH]c2-c2ccncc2)ccc1Cl [L779450] (first compound 0.01 µM, partner dose 0.2 µM)	109
O=C(CCCCCCC(=O)Nc1ccccc1)NO [vorinostat] + COc1ccc(COc2ccc(Cc3cnc(N)nc3N)cc2OC)cc1 [GW2580] (first compound 0.08 µM, partner dose 1 µM)	115
O=C(CCCCCCC(=O)Nc1ccccc1)NO [vorinostat] + COc1cc(N2CCC(N3CCN(C)CC3)CC2)ccc1Nc1ncc(Cl)c(Nc2ccccc2S(=O)(=O)C(C)C)n1 [NVP-TAE684] (first compound 0.08 µM, partner dose 0.08 µM)	102
OCCn1cc(-c2cnc3nnn(Cc4ccc5ncccc5c4)c3n2)cn1 + Oc1nc(-c2ccc(C(F)(F)F)cc2)nc2c1CSCC2 [XAV939] (first compound 1 µM, partner dose 2 µM)	178
Cn1nnc2c(C(N)=O)ncn2c1=O [temozolomide] + COc1ccc(COc2ccc(Cc3cnc(N)nc3N)cc2OC)cc1 [GW2580] (first compound 2 µM, partner dose 1 µM)	134
C=CCn1c(=O)c2cnc(Nc3ccc(N4CCN(C)CC4)cc3)nc2n1-c1cccc(C(C)(C)O)n1 + COc1ccc(COc2ccc(Cc3cnc(N)nc3N)cc2OC)cc1 [GW2580] (first compound 0.02 µM, partner dose 1 µM)	115
NC(=O)Nc1cc(-c2cccc(F)c2)sc1C(=O)N[C@H]1CCCNC1 + Cn1cc(/C=C2\C(=O)Nc3cccnc32)c2ccccc21 [GW441756] (first compound 0.02 µM, partner dose 0.4 µM)	56.8
CO[C@@H]1[C@H](N(C)C(=O)c2ccccc2)C[C@H]2O[C@]1(C)n1c3ccccc3c3c4c(c5c6ccccc6n2c5c31)C(=O)NC4 [Midostaurin] + O=C(O)C(=O)Nc1sc2c(c1C(=O)O)CCNC2 [TCS401] (first compound 0.08 µM, partner dose 1.66667 µM)	189
C#Cc1cccc(Nc2ncnc3cc(OCCOC)c(OCCOC)cc23)c1 [erlotinib] + COc1cc2ncnc(Nc3ccc(Oc4ccccc4)cc3)c2cc1OC [SrcI1] (first compound 0.8 µM, partner dose 2 µM)	40.8
Cn1cncc1[C@@](N)(c1ccc(Cl)cc1)c1ccc2c(c1)c(-c1cccc(Cl)c1)cc(=O)n2C [tipifarnib] + COc1ccc2c(c1)CCC1C2CCC2(C)C(NCCCCCCN3C(=O)C=CC3=O)CCC12 [U73122] (first compound 0.01 µM, partner dose 0.4 µM)	51.9
O=C(Nc1cccc(Cl)c1)Nc1ncc(CCNc2ncnc3ccsc23)s1 + O=C(O)C(=O)Nc1sc2c(c1C(=O)O)CCNC2 [TCS401] (first compound 0.0008 µM, partner dose 1.66667 µM)	187
C=CCn1c(=O)c2cnc(Nc3ccc(N4CCN(C)CC4)cc3)nc2n1-c1cccc(C(C)(C)O)n1 + O=S(=O)(c1ccccc1)N(CC(F)(F)F)c1ccc(C(O)(C(F)(F)F)C(F)(F)F)cc1 [T0901317] (first compound 0.02 µM, partner dose 1.4 µM)	76.4
CC(C)(C)c1cnc(CSc2cnc(NC(=O)C3CCNCC3)s2)o1 + c1cc(-c2cnn3cc(-c4ccc(OCCN5CCCCC5)cc4)cnc23)ccn1 [Dorsomorphin] (first compound 0.01 µM, partner dose 0.4 µM)	118

Structure (SMILES)	cleaved PARP positive nuclei fraction [%]
O=C(CCCCCCC(=O)Nc1ccccc1)NO [vorinostat] + O=S(=O)(c1ccccc1)N(CC(F)(F)F)c1ccc(C(O)(C(F)(F)F)C(F)(F)F)cc1 [T0901317] (first compound 0.08 µM, partner dose 1.4 µM)	46.7
Cn1c(Nc2ccc(C(F)(F)F)cc2)nc2cc(Oc3ccnc(-c4ncc(C(F)(F)F)[nH]4)c3)ccc21 + COC(=O)c1sccc1S(=O)(=O)Nc1ccc(Nc2ccccc2)cc1OC [GSK0660] (first compound 0.08 µM, partner dose 1 µM)	96.8
C#Cc1cccc(Nc2ncnc3cc(OCCOC)c(OCCOC)cc23)c1 [erlotinib] + O=C(Nc1ccccc1)c1cc([N+](=O)[O-])ccc1Cl [GW9662] (first compound 0.8 µM, partner dose 2 µM)	175
Cc1cc(N2CCOCC2)cc2[nH]c(-c3c(NC[C@@H](O)c4cccc(Cl)c4)cc[nH]c3=O)nc12 + O=C(O)C(=O)Nc1sc2c(c1C(=O)O)CCNC2 [TCS401] (first compound 0.2 µM, partner dose 1.66667 µM)	137
Nc1cccc2c1CN(C1CCC(=O)NC1=O)C2=O (stereo not drawn) [lenalidomide] + Oc1nc(-c2ccc(C(F)(F)F)cc2)nc2c1CSCC2 [XAV939] (first compound 1 µM, partner dose 2 µM)	112
Cn1c(Nc2ccc(C(F)(F)F)cc2)nc2cc(Oc3ccnc(-c4ncc(C(F)(F)F)[nH]4)c3)ccc21 + COc1ccc(COc2ccc(Cc3cnc(N)nc3N)cc2OC)cc1 [GW2580] (first compound 0.08 µM, partner dose 1 µM)	44.5
C[C@]1(c2nc3c(C(N)=O)cccc3[nH]2)CCCN1 [Veliparib] + CC(C)CCN1c2nc(Nc3cc(F)c(O)c(F)c3)ncc2N(C)C(=O)C1C [BID1870] (first compound 1.4 µM, partner dose 0.2 µM)	120
C=CCn1c(=O)c2cnc(Nc3ccc(N4CCN(C)CC4)cc3)nc2n1-c1cccc(C(C)(C)O)n1 + CCc1ccc(CCOc2ccc(CC3SC(=O)NC3=O)cc2)nc1 [pioglitazone] (first compound 0.02 µM, partner dose 2 µM)	71.9
C=CCn1c(=O)c2cnc(Nc3ccc(N4CCN(C)CC4)cc3)nc2n1-c1cccc(C(C)(C)O)n1 + COC(=O)c1sccc1S(=O)(=O)Nc1ccc(Nc2ccccc2)cc1OC [GSK0660] (first compound 0.02 µM, partner dose 1 µM)	147
C#Cc1cccc(Nc2ncnc3cc(OCCOC)c(OCCOC)cc23)c1 [erlotinib] + COc1ccc2c(c1)CCC1C2CCC2(C)C(NCCCCCCN3C(=O)C=CC3=O)CCC12 [U73122] (first compound 0.8 µM, partner dose 0.4 µM)	41.1
C=CCn1c(=O)c2cnc(Nc3ccc(N4CCN(C)CC4)cc3)nc2n1-c1cccc(C(C)(C)O)n1 + O=C1NC(=O)/C(=C/c2ccc(-c3ccc(F)cc3O)o2)S1 [AS252424] (first compound 0.02 µM, partner dose 1 µM)	88.4
CC1(C)NC(=O)N(c2ccc([N+](=O)[O-])c(C(F)(F)F)c2)C1=O [nilutamide] + COc1ccc(-c2ccc3c(N4CCOCC4)nc(N4C[C@@H](C)O[C@@H](C)C4)nc3n2)cc1CO [KU0063794] (first compound 1 µM, partner dose 0.02 µM)	107
CC(C)(C)c1cnc(CSc2cnc(NC(=O)C3CCNCC3)s2)o1 + Oc1nc(-c2ccc(C(F)(F)F)cc2)nc2c1CSCC2 [XAV939] (first compound 0.01 µM, partner dose 2 µM)	60.1
COCC[n+]1c2c(n(Cc3cnccn3)c1C)C(=O)c1ccccc1C2=O + COc1ccc(COc2ccc(Cc3cnc(N)nc3N)cc2OC)cc1 [GW2580] (first compound 0.0004 µM, partner dose 1 µM)	134
Nc1cccc2c1CN(C1CCC(=O)NC1=O)C2=O (stereo not drawn) [lenalidomide] + COc1cc2ncnc(Nc3ccc(Oc4ccccc4)cc3)c2cc1OC [SrcI1] (first compound 1 µM, partner dose 2 µM)	43.1
CO[C@@H]1[C@H](N(C)C(=O)c2ccccc2)C[C@H]2O[C@]1(C)n1c3ccccc3c3c4c(c5c6ccccc6n2c5c31)C(=O)NC4 [Midostaurin] + COc1ccc2c(c1)CCC1C2CCC2(C)C(NCCCCCCN3C(=O)C=CC3=O)CCC12 [U73122] (first compound 0.08 µM, partner dose 0.4 µM)	79.3

Retrieved one by one from the list above (two):
Structure (SMILES)	cleaved PARP positive nuclei fraction [%]
Nc1cccc2c1CN(C1CCC(=O)NC1=O)C2=O (stereo not drawn) [lenalidomide] + COc1cc2ncnc(Nc3ccc(Oc4ccccc4)cc3)c2cc1OC [SrcI1] (first compound 1 µM, partner dose 2 µM)	43.1
C#Cc1cccc(Nc2ncnc3cc(OCCOC)c(OCCOC)cc23)c1 [erlotinib] + O=C(Nc1ccccc1)c1cc([N+](=O)[O-])ccc1Cl [GW9662] (first compound 0.8 µM, partner dose 2 µM)	175
